# Source: PubChem BioAssay AID298 (DTP/NCI, 2004)
# The list does not hold the whole screen: it is rich in T/C values a quarter to a half above the control, in often repeated tests (any T/C) and in doses without a T/C. Further doses and runs are listed elsewhere. T/C: endpoint of the treated group in % of that of the vehicle group. Schedule codes are those of the source, read here as Q, the interval in days (D) or hours (H), X, the number of doses. Some entries hold several experiments; the values are given in rising order. Some entries give survivors of the animals treated and no T/C: the source holds a T/C of zero for them, seemingly a mark for toxic or unscored doses. Survivors were counted at the toxicity check, usually on the fifth day, unless a day is given; later deaths do not show.
# System: MX-1 breast xenograft, intrarenal, nude mice, tumor weight
# Assay: NCI In Vivo Anticancer Drug Screen. Data for tumor model Human Mammary Carcinoma MX-1 Xenograft (intrarenal inoculation) in NU/NU BALB/C (nude) mice
# Conditions: T/C endpoint: mean tumor weight change, higher T/C = larger tumour; for T/C: evaluated on day 11
# Outline: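 Mice w/ transplanted tumors, drug vs vehicle; endpoint survival or tumor size; value = T/C.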
# [1] = dose: 300.0 mg/kg/injection, schedule: Q04DX003 (ip), vehicle: saline with Tween-80
# [2] = dose: 600.0 mg/kg/injection, schedule: Q04DX003 (ip), vehicle: saline with Tween-80
# [3] = dose: 1200.0 mg/kg/injection, schedule: Q04DX003 (ip), vehicle: saline with Tween-80
# [4] = dose: 150.0 mg/kg/injection, schedule: Q04DX003 (sc), vehicle: water
# [5] = dose: 400.0 mg/kg/injection, schedule: Q04DX003 (ip), vehicle: saline with Tween-80
# [6] = dose: 1200.0 mg/kg/injection, schedule: Q04DX003 (ip), vehicle: Klucel (hydroxypropylcellulose) (HPC)
# [7] = dose: 150.0 mg/kg/injection, schedule: Q04DX003 (ip), vehicle: saline with Tween-80
# [8] = dose: 200.0 mg/kg/injection, schedule: Q04DX003 (ip), vehicle: saline with Tween-80
smiles,measurement,setting,value
O=c1[nH]cnc2c1cnn2CN1CCOCC1,T/C,"dose: 75.0 mg/kg/injection, schedule: Q04DX003 (ip), vehicle: Klucel (hydroxypropylcellulose) (HPC)",125 % of control
same,survivor count,"dose: 600.0 mg/kg/injection, schedule: Q04DX003 (ip), vehicle: Klucel (hydroxypropylcellulose) (HPC)",1 of 6 on day 11
CNc1ncn(-c2c(C)cccc2C)c(=O)n1,survivor count,[1],3 of 5 on day 11
same,survivor count,[2],3 of 5 on day 11
same,survivor count,[3],2 of 6 on day 11
CNC(=S)SC1=NS(=O)(=O)c2ccccc2N1,T/C,"dose: 100.0 mg/kg/injection, schedule: Q04DX003 (ip), vehicle: Klucel (hydroxypropylcellulose) (HPC)",149 % of control
same,survivor count,"dose: 800.0 mg/kg/injection, schedule: Q04DX003 (ip), vehicle: Klucel (hydroxypropylcellulose) (HPC)",0 of 6 on day 11
NC(CNC(=O)CBr)C(=O)O (stereo unspecified),survivor count,[4],0 of 6 on day 11
Cc1nc2c(N)cc(Cl)cc2[nH]1,survivor count,[5],0 of 6 on day 11
same,survivor count,"dose: 800.0 mg/kg/injection, schedule: Q04DX003 (ip), vehicle: saline with Tween-80",0 of 6 on day 11
Nc1ccc(Cn2ccc3c4c(N)nc(N)nc4ccc32)cc1,survivor count,"dose: 75.0 mg/kg/injection, schedule: Q04DX003 (sc), vehicle: saline with Tween-80",1 of 6 on day 11
same,survivor count,"dose: 150.0 mg/kg/injection, schedule: Q04DX003 (sc), vehicle: saline with Tween-80",0 of 6 on day 11
COC1=C(OC)C(=O)C(SC/C=C(\C)CCCC(C)CCCC(C)CCCC(C)C)=CC1=O (stereo unspecified),survivor count,"dose: 2400.0 mg/kg/injection, schedule: Q04DX003 (ip), vehicle: saline with Tween-80",2 of 6 on day 11
Cc1nc(N)nc(N)c1N1CCN(c2ccc(C(=O)NC(CCC(=O)O)C(=O)O)cc2)CC1 (stereo unspecified),T/C,"dose: 200.0 mg/kg/injection, schedule: Q04DX003 (ip), vehicle: other",145 % of control
CC1OC(O[C@H]2/C=C/C=C/C=C/C=C/C=C/C=C/C=C/[C@H](C)[C@@H](O)[C@@H](C)[C@H](C)OC(=O)C[C@H](O)C[C@H](O)CC[C@@H](O)[C@H](O)C[C@H](O)C[C@]3(O)C[C@H](O)[C@@H](C(=O)O)[C@H](C2)O3)C(O)C(N)C1O (stereo partly specified),T/C,"dose: 50.0 mg/kg/injection, schedule: Q04DX003 (ip), vehicle: suspension in saline",131 % of control
CO[C@@]12[C@H](COC(N)=O)C3=C(C(=O)C(C)=C(N)C3=O)N1C[C@@H]1N[C@@H]12,survivor count,"dose: 12.0 mg/kg/injection, schedule: Q04DX003 (ip), vehicle: suspension in saline",0 of 6 on day 11
same,survivor count,"dose: 24.0 mg/kg/injection, schedule: Q04DX003 (ip), vehicle: suspension in saline",1 of 6 on day 11
O=C[C@@H](CO)O[C@H](C=O)c1c[nH]c(=O)[nH]c1=O,T/C,"dose: 75.0 mg/kg/injection, schedule: Q04DX003 (ip), vehicle: saline","10, 14, 22, 31 % of control"
same,survivor count,"dose: 150.0 mg/kg/injection, schedule: Q04DX003 (ip), vehicle: saline",2 of 6 on day 11
same,survivor count,"dose: 300.0 mg/kg/injection, schedule: Q04DX003 (ip), vehicle: saline",0 of 6 on day 11
COc1ccc(C[C@@H]2NC[C@@H](O)[C@@H]2OC(C)=O)cc1,survivor count,[2],0 of 6 on day 11
same,survivor count,[3],0 of 6 on day 11
N#Cc1ccc(NN=O)nc1,survivor count,"dose: 100.0 mg/kg/injection, schedule: Q04DX003 (ip), vehicle: water",2 of 6 on day 11
O=C(NC(Cc1ccc(I)cc1)C(=O)O)c1cccc(Br)c1 (stereo unspecified),survivor count,[6],0 of 6 on day 11
CC[C@@]1(O)C(=O)OCc2c1cc1n(c2=O)Cc2cc3ccccc3nc2-1,survivor count,"dose: 40.0 mg/kg/injection, schedule: Q04DX003 (sc), vehicle: saline with Tween-80",0 of 6 on day 11
same,survivor count,"dose: 80.0 mg/kg/injection, schedule: Q04DX003 (sc), vehicle: saline with Tween-80",0 of 6 on day 11 and 3 of 6 on day 11
CS(=O)(=O)CS(=O)(=O)OCCF,survivor count,"dose: 50.0 mg/kg/injection, schedule: Q04DX003 (ip), vehicle: saline",3 of 6 on day 11
same,survivor count,"dose: 100.0 mg/kg/injection, schedule: Q04DX003 (ip), vehicle: saline",2 of 5 on day 11
COc1ccc(-c2cc(C(=O)Nc3cc(C(F)(F)F)cc(C(F)(F)F)c3)c3ccccc3n2)cc1,survivor count,"dose: 1200.0 mg/kg/injection, schedule: Q04DX003 (ip), vehicle: DMSO",0 of 6 on day 11
CNc1n[n+](-c2ccccc2)no1,survivor count,[4],1 of 6 on day 11
O=S1(=O)CS(=O)(=O)OCCO1,survivor count,"dose: 75.0 mg/kg/injection, schedule: Q04DX003 (sc), vehicle: Klucel (hydroxypropylcellulose) (HPC)",2 of 6 on day 11
same,survivor count,"dose: 100.0 mg/kg/injection, schedule: Q04DX003 (sc), vehicle: Klucel (hydroxypropylcellulose) (HPC)",1 of 6 on day 11
same,survivor count,"dose: 150.0 mg/kg/injection, schedule: Q04DX003 (sc), vehicle: Klucel (hydroxypropylcellulose) (HPC)",0 of 6 on day 11
same,survivor count,"dose: 300.0 mg/kg/injection, schedule: Q04DX003 (sc), vehicle: Klucel (hydroxypropylcellulose) (HPC)",0 of 6 on day 11 and 1 of 6 on day 11
same,survivor count,"dose: 600.0 mg/kg/injection, schedule: Q04DX003 (sc), vehicle: Klucel (hydroxypropylcellulose) (HPC)",0 of 6 on day 11
NS(=O)(=O)OCCCCCCCOS(N)(=O)=O,survivor count,[7],2 of 6 on day 11
same,survivor count,[1],0 of 6 on day 11
COC(=O)c1ccc(N=NN(C)COC(C)=O)cc1,T/C,"dose: 240.0 mg/kg/injection, schedule: Q04DX003 (ip), vehicle: Klucel (hydroxypropylcellulose) (HPC)",128 % of control
same,survivor count,"dose: 480.0 mg/kg/injection, schedule: Q04DX003 (ip), vehicle: Klucel (hydroxypropylcellulose) (HPC)",1 of 6 on day 11
N=C(N)c1ccc(N=NNc2ccc(C(=N)N)cc2)cc1,survivor count,[1],0 of 6 on day 11
same,survivor count,[2],0 of 6 on day 11
COC(=O)[C@@]12OC[C@]34[C@H]([C@@H](O)[C@@H]1O)[C@@]1(C)CC(=O)C(O)=C(C)[C@@H]1C[C@H]3OC(=O)[C@H](OC(=O)/C=C(\C)C(C)C)[C@@H]24,T/C,"dose: 0.13 mg/kg/injection, schedule: Q01DX010 (sc), vehicle: saline + alcohol",138 % of control
same,T/C,"dose: 0.25 mg/kg/injection, schedule: Q01DX010 (sc), vehicle: saline + alcohol",141 % of control
same,T/C,"dose: 0.5 mg/kg/injection, schedule: Q01DX010 (sc), vehicle: saline + alcohol",126 % of control
Nc1n[nH]c2ccccc12,T/C,"dose: 150.0 mg/kg/injection, schedule: Q04DX003 (ip), vehicle: other",130 % of control
same,survivor count,"dose: 1200.0 mg/kg/injection, schedule: Q04DX003 (ip), vehicle: other",0 of 6 on day 11
CCC1(O)C(=O)OCc2c1cc1n(c2=O)Cc2cc3cc4c(cc3nc2-1)OCO4 (stereo unspecified),survivor count,"dose: 8.0 mg/kg/injection, schedule: Q04DX003 (ip), vehicle: saline with Tween-80",0 of 6 on day 11
same,survivor count,"dose: 16.0 mg/kg/injection, schedule: Q04DX003 (ip), vehicle: saline with Tween-80",0 of 6 on day 11
same,survivor count,"dose: 32.0 mg/kg/injection, schedule: Q04DX003 (ip), vehicle: saline with Tween-80",0 of 6 on day 11
c1ccc2c(c1)[As]=c1ccccc1=[As]2 (stereo unspecified),T/C,"dose: 37.5 mg/kg/injection, schedule: Q04DX003 (sc), vehicle: saline",136 % of control
NCCCNCCCCNC(=O)C(O)NC(=O)CCCCCCN=C(N)N (stereo unspecified),survivor count,"dose: 50.0 mg/kg/injection, schedule: Q04DX003 (ip), vehicle: saline with Tween-80",0 of 6 on day 11
same,survivor count,"dose: 100.0 mg/kg/injection, schedule: Q04DX003 (ip), vehicle: saline with Tween-80",0 of 6 on day 11
same,survivor count,[8],0 of 6 on day 11
O=C1CNC(=O)N1CN1CCOCC1,survivor count,[6],2 of 6 on day 11
CNC(=O)Sc1ccc(C)c(N(C)C)c1,survivor count,[2],0 of 6 on day 11
same,survivor count,[3],0 of 6 on day 11
O=C(Nc1ccccc1)c1c(O)[nH]c(=S)[nH]c1=O,survivor count,[7],2 of 5 on day 11
same,survivor count,[8],3 of 6 on day 11
same,survivor count,[1],0 of 6 on day 11
same,survivor count,[5],0 of 6 on day 11
same,survivor count,[2],0 of 5 on day 11
